Measured values: PMC12118722, “Self-assembled peptide-dye nanostructures for in vivo tumor imaging and photodynamic toxicity” (npj Imaging, 2024)
Results are given in words; binding and its absence hold for the method and conditions named. Some results given as binding are weak or reduced against the parent protein; the word gives no strength.

By UniProt entry, the sequences of proteins in these tests, tags left out. Where a name states a change or a piece, a line headed by the entry shows the natural chain unless it says otherwise.
UniProt P06756: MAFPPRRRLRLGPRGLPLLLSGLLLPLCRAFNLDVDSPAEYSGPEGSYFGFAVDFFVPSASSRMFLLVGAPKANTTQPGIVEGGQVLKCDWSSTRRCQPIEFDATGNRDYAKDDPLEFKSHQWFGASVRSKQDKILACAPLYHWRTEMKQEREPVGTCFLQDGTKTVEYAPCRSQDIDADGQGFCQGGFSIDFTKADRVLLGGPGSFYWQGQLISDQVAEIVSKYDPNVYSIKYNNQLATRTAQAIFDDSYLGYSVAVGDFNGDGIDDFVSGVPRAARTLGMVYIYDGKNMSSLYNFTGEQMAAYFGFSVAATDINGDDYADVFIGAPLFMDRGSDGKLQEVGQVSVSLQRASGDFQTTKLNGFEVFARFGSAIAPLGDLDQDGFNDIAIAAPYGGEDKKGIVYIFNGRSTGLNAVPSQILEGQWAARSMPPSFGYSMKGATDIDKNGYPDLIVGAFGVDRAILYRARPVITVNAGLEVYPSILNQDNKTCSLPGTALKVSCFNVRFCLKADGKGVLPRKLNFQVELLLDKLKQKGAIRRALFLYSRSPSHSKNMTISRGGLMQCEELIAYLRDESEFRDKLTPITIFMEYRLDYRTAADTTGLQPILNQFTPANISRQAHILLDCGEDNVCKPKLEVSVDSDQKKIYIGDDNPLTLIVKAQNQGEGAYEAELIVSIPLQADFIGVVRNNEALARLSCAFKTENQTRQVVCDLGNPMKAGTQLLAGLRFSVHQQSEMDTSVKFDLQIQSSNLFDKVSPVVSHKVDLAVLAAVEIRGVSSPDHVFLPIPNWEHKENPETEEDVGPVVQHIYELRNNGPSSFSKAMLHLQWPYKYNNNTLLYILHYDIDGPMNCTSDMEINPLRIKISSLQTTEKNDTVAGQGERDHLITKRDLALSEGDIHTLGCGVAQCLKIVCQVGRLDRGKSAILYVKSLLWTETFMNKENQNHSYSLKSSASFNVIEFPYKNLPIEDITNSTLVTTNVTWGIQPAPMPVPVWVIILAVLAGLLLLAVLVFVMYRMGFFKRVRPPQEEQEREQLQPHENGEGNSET
UniProt P18084: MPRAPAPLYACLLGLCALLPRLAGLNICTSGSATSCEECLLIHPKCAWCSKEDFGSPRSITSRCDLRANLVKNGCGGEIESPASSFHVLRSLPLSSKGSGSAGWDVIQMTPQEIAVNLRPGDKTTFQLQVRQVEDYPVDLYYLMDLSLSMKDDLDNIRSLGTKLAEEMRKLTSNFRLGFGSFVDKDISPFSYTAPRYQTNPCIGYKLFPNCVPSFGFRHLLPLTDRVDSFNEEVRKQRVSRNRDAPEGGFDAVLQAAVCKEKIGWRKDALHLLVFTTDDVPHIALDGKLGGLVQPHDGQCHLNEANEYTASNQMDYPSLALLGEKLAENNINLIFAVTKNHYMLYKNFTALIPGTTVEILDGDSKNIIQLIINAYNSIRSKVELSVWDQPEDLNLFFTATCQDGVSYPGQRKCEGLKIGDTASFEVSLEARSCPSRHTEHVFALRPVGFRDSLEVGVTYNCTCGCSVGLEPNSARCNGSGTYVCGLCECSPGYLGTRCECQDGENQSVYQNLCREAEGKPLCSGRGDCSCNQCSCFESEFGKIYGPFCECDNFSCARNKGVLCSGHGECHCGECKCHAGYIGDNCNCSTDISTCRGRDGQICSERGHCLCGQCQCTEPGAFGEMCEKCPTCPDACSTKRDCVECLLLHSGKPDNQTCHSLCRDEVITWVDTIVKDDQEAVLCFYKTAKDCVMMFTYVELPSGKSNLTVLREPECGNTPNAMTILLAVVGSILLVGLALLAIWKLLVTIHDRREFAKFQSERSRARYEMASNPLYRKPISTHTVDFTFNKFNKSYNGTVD

Biological target: αVβ5 integrin (human (endogenous in SKOV-3)) (UniProt P06756+P18084)
Assay: flow cytometry on cells; competitive inhibition: SKOV-3 cells seeded overnight, treated or not with αVβ5 mAbs (20 µg/µL) for 90 min, then with iRGD-BNPs or iRGD-SNPs; methylene blue fluorescence of the cells read in the APC channel; only the binder purified

With CRGDKGPDCDD [iRGD-DD] the binding was “binds”.
